Measured values reported in PMC10164743.
Results are given in words; binding and its absence hold for the method and conditions named. Binding seen in cells or lysates may run through a third protein. Some results given as binding are weak or reduced against the parent protein; the word gives no strength.

Protein sequences, listed by entry. Tags and fused reporters are not part of them.
UniProt Q08775: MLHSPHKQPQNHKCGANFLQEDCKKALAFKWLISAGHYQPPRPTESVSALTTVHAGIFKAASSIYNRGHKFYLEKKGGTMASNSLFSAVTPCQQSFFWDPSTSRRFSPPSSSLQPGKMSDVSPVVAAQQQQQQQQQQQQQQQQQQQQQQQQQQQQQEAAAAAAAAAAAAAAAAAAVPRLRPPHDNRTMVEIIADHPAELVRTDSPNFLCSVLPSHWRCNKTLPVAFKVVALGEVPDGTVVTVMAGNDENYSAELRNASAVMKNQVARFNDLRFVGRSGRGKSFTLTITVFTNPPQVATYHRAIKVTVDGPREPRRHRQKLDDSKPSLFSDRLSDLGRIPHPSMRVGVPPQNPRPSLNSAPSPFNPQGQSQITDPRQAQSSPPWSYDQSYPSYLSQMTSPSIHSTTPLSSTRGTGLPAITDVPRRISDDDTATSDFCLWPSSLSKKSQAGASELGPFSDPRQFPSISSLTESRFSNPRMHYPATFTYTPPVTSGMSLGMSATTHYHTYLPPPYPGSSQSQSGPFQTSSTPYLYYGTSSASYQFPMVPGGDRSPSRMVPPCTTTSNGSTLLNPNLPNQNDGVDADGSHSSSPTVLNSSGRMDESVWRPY

Target: Runt-related transcription factor 2 (UniProt Q08775)
Assay: co-IP; G2/M-synchronized C6 cells transfected with pECMV-Runx2-m-FLAG or pECMV-Fam50a-m-FLAG/pECMV-Runx2-m-FLAG (1:1), lysed with RIPA; immunoprecipitation with anti-Fam50a or anti-Runx2 (anti-IgG as control) on anti-IgG beads, four washes with cell lysis buffer, western blot

- binding: binds
B1: Fam50a (protein, UniProt Q9WV03 1-339)
chain: MAQYKGAASEAGRAMHLMKKREKQREQMEQMKQRIAEENIMKSNIDKKFSAHYDAVEAELKSSTVGLVTLNDMKAKQEALVKEREKQLAKKEQSKELQLKLEKLREKERKKEAKRKISSLSFTLEEEEEGVEEEEEMAMYEEELEREEITTKKKKLGKNPDVDTSFLPDRDREEEENRLREELRQEWEAKQEKIKSEEIEITFSYWDGSGHRRTVKMKKGNTMQQFLQKALEILRKDFSELRSAGVEQLMYIKEDLIIPHHHSFYDFIVTKARGKSGPLFNFDVHDDVRLLSDATVEKDESHAGKVVLRSWYEKNKHIFPASRWEPYDPEKKWDKYTIR
